Measurements published in CN116041515A.
These are yes or no findings as the source states them, for the method shown. Some results given as binding are weak or reduced against the parent protein; the word gives no strength. For part of these data: Where a sequence is shown, tags or fusion partners need not be part of it.

Key:
[1] = target: T1, Acro-human BAFF-R Protein, his tag, ACRObiosystem BAFFR-H52H5 (human) (UniProt Q96RJ3); assay: phage ELISA
T1 sequence (looked up): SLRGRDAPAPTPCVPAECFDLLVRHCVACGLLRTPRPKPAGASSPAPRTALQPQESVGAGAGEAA

[2] = target: T2, SB-human BAFF-R Protein, his tag, Bio, SinoBiological 11027-H27H-B (human) (UniProt Q96RJ3); assay: phage ELISA
T2 sequence (biotinylated, looked up): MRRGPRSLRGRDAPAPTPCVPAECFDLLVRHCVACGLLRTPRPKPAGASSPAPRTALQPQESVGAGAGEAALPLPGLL

[3] = target: T3, BAFF-R on K562-BAFF-R cells (UniProt Q96RJ3); assay: phage FACS on K562-BAFF-R cells
T3 sequence (looked up): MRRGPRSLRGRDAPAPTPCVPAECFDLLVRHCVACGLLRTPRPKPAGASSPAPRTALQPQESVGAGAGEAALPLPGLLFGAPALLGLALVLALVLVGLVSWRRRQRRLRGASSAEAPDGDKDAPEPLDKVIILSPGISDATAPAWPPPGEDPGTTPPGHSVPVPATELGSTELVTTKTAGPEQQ

[4] = target: T4, Recombinant biotinylated Human BAFF-R Protein, Kactus BAF-HM40RB (human) (UniProt Q96RJ3); assay: BLI, IgG on the sensor, antigen 100 to 6.25 nM
T4 sequence (biotinylated, looked up): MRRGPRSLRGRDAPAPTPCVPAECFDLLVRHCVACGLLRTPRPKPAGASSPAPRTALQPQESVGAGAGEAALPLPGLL

[5] = target: T4, Recombinant biotinylated Human BAFF-R Protein, Kactus BAF-HM40RB (human); assay: ELISA with purified IgG-form antibody
BAFF-R on NALM6 cells = target: T5, BAFF-R on NALM6 cells (UniProt Q96RJ3); assay: FACS on NALM6 cells with purified IgG-form antibody
T5 sequence (looked up): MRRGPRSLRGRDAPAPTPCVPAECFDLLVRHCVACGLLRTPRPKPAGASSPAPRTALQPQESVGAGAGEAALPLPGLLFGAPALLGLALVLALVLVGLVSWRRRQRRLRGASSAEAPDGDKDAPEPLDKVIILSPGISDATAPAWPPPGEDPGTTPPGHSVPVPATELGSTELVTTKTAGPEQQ

Measured: binding

B1: Clone 10 (phage-displayed scFv monoclonal) (scFv)
scFv: QSALTQPASVSGSPGQSITISCTGTSSDVGGYNYVSWYQQHPGKAPKLMIYEVSNRPSGVSNRFSGSKSGNTASLTISGLQAEDEADYYCSSYTSSSTYVFGTGTKVTVLGSRGGGGSGGGGSGGGGSLEQITLKESGPTLVKPTQTLTLTCTFSGFSLSTSGVGVGWIRQPPGKALEWLALIYWDDDKRYSPSLKSRLTITKDTSKNQVVLTMTNMDPVDTATYYCARYAGQYSGMWPWDYWGQGTLVTVSS
binds: [1] | [2] | [3]

B2: Clone 10 IgG (Fc fusion, not shown: a dimerising Fc or GST)
chain: QSALTQPASVSGSPGQSITISCTGTSSDVGGYNYVSWYQQHPGKAPKLMIYEVSNRPSGVSNRFSGSKSGNTASLTISGLQAEDEADYYCSSYTSSSTYVFGTGTKVTVLGSRGGGGSGGGGSGGGGSLEQITLKESGPTLVKPTQTLTLTCTFSGFSLSTSGVGVGWIRQPPGKALEWLALIYWDDDKRYSPSLKSRLTITKDTSKNQVVLTMTNMDPVDTATYYCARYAGQYSGMWPWDYWGQGTLVTVSS
binds: [4] | [5] | BAFF-R on NALM6 cells
